Results deposited as PubChem BioAssay AID1259308 (NCATS, 2017)
In all, the deposit lists about 59,000 reagents; this is an unselected part. Of all reagents, about 1,510 (2.6%) were called active. 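Calls use total luciferase alone and ignore viability, so some active siRNAs may act by altering cell number.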 The numbers tell different reagents against one gene apart.

Purpose: 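Candidate targets for better recombinant protein yield in mammalian cells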 (primary screen)
Cells: human HEK293 embryonic kidney cells stably expressing firefly luciferase (HEK-CMV-Luc2-Hygro)
Knock-down reagent: single siRNA against human genes, 0.8 pmol siRNA per well
Duration: 72 h
Read-out: 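Luciferase light (ONE-Glo) measured on one replicate plate set and viability (CellTiter-Glo) on the other, scaled to a negative control siRNA, with robust z-scores and luciferase per cell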
Direction: total luciferase, z-score and total luciferase, % of control: higher = more reporter protein produced; luciferase per cell, z-score: higher = more reporter output per viable cell; viable cells, % of control: higher = more viable cells
Call rule: 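An siRNA counts as active if its total luciferase robust z-score exceeds 3; genes with two or more such siRNAs out of three were retested with fresh siRNAs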
Meaning of the calls: active = raised luciferase; inactive = no rise

| Gene | reagent | total luciferase, z-score | total luciferase, % of control | luciferase per cell, z-score | viable cells, % of control | Outcome |
| --- | --- | --- | --- | --- | --- | --- |
| OR52M1 (GeneID 119772) | 1 | -0.685 | 68.3 | -0.765 | 93.3 | inactive |
| OR52M1 (GeneID 119772) | 2 | 2.64 | 134 | 3.03 | 67.6 | inactive |
| OR52M1 (GeneID 119772) | 3 | -0.658 | 68.8 | -0.465 | 86.9 | inactive |
| SVOPL (GeneID 136306) | 1 | 1.18 | 105 | 2.07 | 68.3 | inactive |
| SVOPL (GeneID 136306) | 2 | 2.22 | 126 | 1.75 | 88.9 | inactive |
| SVOPL (GeneID 136306) | 3 | -0.586 | 70.2 | 0.455 | 69.6 | inactive |
| PXN (GeneID 5829) | 1 | 0.396 | 89.8 | -0.19 | 105 | inactive |
| PXN (GeneID 5829) | 2 | -0.344 | 75 | -0.428 | 93.9 | inactive |
| PXN (GeneID 5829) | 3 | 0.309 | 88 | -0.301 | 106 | inactive |
| NPFF (GeneID 8620) | 1 | -0.658 | 68.8 | -1.85 | 125 | inactive |
| NPFF (GeneID 8620) | 2 | 5.14 | 184 | 2.14 | 117 | active |
| NPFF (GeneID 8620) | 3 | -1.69 | 48.3 | 0.196 | 51.3 | inactive |
| SCGB2B2 (GeneID 284402) | 1 | 0.68 | 95.4 | 0.679 | 89.2 | inactive |
| SCGB2B2 (GeneID 284402) | 2 | 0.177 | 85.4 | 0.383 | 86.3 | inactive |
| SCGB2B2 (GeneID 284402) | 3 | 0.428 | 90.4 | -0.318 | 110 | inactive |
| FAM226B (GeneID 653687) | 1 | -0.903 | 63.9 | -1.02 | 93.4 | inactive |
| FAM226B (GeneID 653687) | 2 | 0.307 | 88 | 0.492 | 86.4 | inactive |
| FAM226B (GeneID 653687) | 3 | 0.208 | 86 | 0.231 | 90.4 | inactive |
| FAM226B (GeneID 653687) | 4 | -0.26 | 76.7 | 0.0674 | 84.2 | inactive |
| FAM226B (GeneID 653687) | 5 | 0.359 | 89 | 0.345 | 90.8 | inactive |
| FAM226B (GeneID 653687) | 6 | 0.576 | 93.3 | 1.55 | 69.3 | inactive |
| RPL12P8 (GeneID 645161) | 1 | 1.32 | 108 | 1.14 | 89.5 | inactive |
| RPL12P8 (GeneID 645161) | 2 | -0.00781 | 81.7 | -0.0235 | 91.9 | inactive |
| RPL12P8 (GeneID 645161) | 3 | 1.83 | 118 | 1.77 | 82.9 | inactive |

Reformatted: 2 of the entries above
Gene	reagent	total luciferase, z-score	total luciferase, % of control	luciferase per cell, z-score	viable cells, % of control	Outcome
NPFF (GeneID 8620)	1	-0.658	68.8	-1.85	125	inactive
NPFF (GeneID 8620)	2	5.14	184	2.14	117	active
